Results as given in paper PMC12679585, “Design, synthesis, and characterization of novel 5-ethylsulfonyl-indazole-3-carboxamides as dual VEGFR-2 and EGFR inhibitors: apoptotic antiproliferative and immunomodulatory evaluations” (RSC Advances, 2025).

Tests used:
HCT-116 = experiment: Antiproliferative assay (MTT); type: cell-based, human; details: ratio of IC50 values
Source text: (§1) The MTT assay[53,54] was employed to evaluate the antiproliferative efficacy of new compounds 8a–l against two human cancer cell lines: MCF-7 (breast) and HCT-116 (colorectal carcinoma). Erlotinib was employed as the benchmark. Check Appendix A for additional experimental information.
(§2) The MTT assay[53,54] was used to evaluate the antiproliferative properties of novel compounds 8a–l against two human cancer cell lines: MCF-7 (breast cancer) and HCT-116 (colorectal carcinoma). Erlotinib was utilized as the reference. […] The provided values represent the means of three experiments ± standard deviation (SD). […]
(§3) of Ham's F-12 medium/ Dulbecco's modified Eagle's medium (DMEM) (1:1) supplemented with 10% foetal calf serum (GIBCO, UK), 2 mM glutamine, insulin (10 μg/mL), hydrocortisone (500 ng/mL) and epidermal growth factor (20 ng/mL). Trypsin ethylenediamine tetra acetic acid (EDTA) was used to passage the cells after every 2-3 days. 96-well flat-bottomed cell culture plates were used to seed the cells at a density of 10^4 cells mL-1. The medium was aspirated from all the wells of culture plates after 24 h followed by the addition of synthesized compounds (in 200 μL medium to yield a final concentration of 0.1% (v/v) dimethyl sulfoxide) into individual wells of the plates.
(§4) Four wells were designated to a single compound. The plates were allowed to incubate at 37°C for 96 h. Afterwards, the medium was aspirated and 3-[4,5-dimethylthiazol-2-yl]-2,5-diphenyltetrazolium bromide (MTT) (0.4 mg/mL) in medium was added to each well and subsequently incubated for 3 h. The medium was aspirated and 150 μL dimethyl sulfoxide (DMSO) was added to each well. The plates were vortexed followed by the measurement of absorbance at 540 nm on a microplate reader. […]
(§5) All cell lines […]
(§6) were obtained from ATCC (American Type Cell Culture). […]
(§7) μM), benzamidine HCl (16 μg/mL), NaCl (10 mM),leupeptin (10 μg/mL) and pepstatin (10 μg/mL) at 0°C for 20 min at pH 7.4, followed by centrifugation for 20 min. To eliminate the nonspecifically bound material, a Ni-NTA super flow packed column was (1 picture or pasted object on this page, not shown here)

MCF-7 = experiment: Antiproliferative assay (MTT); type: cell-based, human; details: ratio of IC50 values
Source text: as §1, §2, §3, §4, §5, §6, §7

| Structure (SMILES) | Times less potent than 8h, HCT-116 (HCT-116) | Times less effective than 8h, MCF-7 (MCF-7) | Times more potent than erlotinib, HCT-116 (HCT-116) | Times more potent than erlotinib, MCF-7 (MCF-7) |
| --- | --- | --- | --- | --- |
| CCS(=O)(=O)c1ccc2[nH]nc(C(=O)NNC(=O)NC3CCCCC3)c2c1 [Compound 8e, 2-(5-(Ethylsulfonyl)-1H-indazole-3-carbonyl)-N-(cyclohexyl)hydrazine-1-carboxamide] | approximately 1.40 times | 1.56 times | – | – |
| CCS(=O)(=O)c1ccc2[nH]nc(C(=O)NNC(=O)NC3CCC(C)CC3)c2c1 (stereo not drawn) [Compound 8f, 2-(5-(Ethylsulfonyl)-1H-indazole-3-carbonyl)-N-(4-methylcyclohexyl)hydrazine-1-carboxamide] | 1.70 times | half as effective | – | – |
| CCS(=O)(=O)c1ccc2[nH]nc(C(=O)NNC(=O)NC3CCCCCC3)c2c1 [Compound 8h, 2-(5-(Ethylsulfonyl)-1H-indazole-3-carbonyl)-N-(cycloheptyl)hydrazine-1-carboxamide] | – | – | approximately 1.3 times | 1.6 times |
